Source: doi:10.1101/2020.12.01.406488
These are yes or no findings as the source states them, for the method shown. Binding seen in cells or lysates may run through a third protein. Some binding calls cover weakened binding; strength is not graded here.

Sequences of proteins named here, by UniProt entry; tags and fusion partners are left off.
UniProt O70546: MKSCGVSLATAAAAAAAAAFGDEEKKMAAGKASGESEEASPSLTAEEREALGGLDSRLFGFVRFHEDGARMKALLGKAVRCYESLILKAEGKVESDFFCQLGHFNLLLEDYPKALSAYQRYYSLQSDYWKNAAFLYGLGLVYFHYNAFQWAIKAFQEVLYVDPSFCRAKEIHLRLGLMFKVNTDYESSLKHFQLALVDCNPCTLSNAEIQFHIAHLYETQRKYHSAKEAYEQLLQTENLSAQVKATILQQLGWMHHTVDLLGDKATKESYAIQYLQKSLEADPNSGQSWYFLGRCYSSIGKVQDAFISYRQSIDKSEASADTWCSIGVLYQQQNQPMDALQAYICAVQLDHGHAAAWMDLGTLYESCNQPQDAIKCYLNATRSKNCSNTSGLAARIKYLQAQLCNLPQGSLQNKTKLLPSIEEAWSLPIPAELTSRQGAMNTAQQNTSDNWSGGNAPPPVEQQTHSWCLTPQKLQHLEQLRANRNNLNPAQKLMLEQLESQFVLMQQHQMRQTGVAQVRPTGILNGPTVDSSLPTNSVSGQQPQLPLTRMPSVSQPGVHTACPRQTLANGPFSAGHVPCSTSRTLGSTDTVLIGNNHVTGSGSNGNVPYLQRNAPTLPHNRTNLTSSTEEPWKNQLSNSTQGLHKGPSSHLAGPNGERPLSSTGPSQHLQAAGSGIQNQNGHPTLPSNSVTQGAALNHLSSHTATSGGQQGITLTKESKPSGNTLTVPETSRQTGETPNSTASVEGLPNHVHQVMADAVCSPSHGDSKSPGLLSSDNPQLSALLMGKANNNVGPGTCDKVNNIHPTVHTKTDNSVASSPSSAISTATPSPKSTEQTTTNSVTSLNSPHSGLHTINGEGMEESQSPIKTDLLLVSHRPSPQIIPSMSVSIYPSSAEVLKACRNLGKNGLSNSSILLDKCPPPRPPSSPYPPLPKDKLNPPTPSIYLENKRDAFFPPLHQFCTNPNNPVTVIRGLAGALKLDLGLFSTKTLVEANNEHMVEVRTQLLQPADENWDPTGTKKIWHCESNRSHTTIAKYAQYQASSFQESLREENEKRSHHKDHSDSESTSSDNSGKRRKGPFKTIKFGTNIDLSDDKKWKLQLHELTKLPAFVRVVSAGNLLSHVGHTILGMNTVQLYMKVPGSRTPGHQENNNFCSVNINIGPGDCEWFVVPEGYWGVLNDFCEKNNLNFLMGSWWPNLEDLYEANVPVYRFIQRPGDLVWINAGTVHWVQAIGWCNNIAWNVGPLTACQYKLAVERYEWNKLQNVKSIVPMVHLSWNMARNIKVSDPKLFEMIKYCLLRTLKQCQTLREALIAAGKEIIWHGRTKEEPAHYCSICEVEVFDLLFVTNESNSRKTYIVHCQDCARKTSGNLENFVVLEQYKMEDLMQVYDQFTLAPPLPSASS
UniProt Q8BUN5: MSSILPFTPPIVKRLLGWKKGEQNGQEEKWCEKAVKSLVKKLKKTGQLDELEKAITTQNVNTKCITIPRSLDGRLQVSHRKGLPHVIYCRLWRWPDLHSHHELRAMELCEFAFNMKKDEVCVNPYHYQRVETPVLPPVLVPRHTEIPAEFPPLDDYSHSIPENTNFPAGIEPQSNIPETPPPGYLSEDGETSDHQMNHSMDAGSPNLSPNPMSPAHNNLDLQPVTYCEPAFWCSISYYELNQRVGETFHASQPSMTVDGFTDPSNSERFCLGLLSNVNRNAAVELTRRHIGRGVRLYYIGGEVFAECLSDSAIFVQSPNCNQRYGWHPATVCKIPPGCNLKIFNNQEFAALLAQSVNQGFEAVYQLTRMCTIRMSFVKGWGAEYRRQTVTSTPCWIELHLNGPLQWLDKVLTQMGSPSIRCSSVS

T1: Oct1 (mouse (endogenous in ESCs)) (UniProt P25425)
T1 sequence: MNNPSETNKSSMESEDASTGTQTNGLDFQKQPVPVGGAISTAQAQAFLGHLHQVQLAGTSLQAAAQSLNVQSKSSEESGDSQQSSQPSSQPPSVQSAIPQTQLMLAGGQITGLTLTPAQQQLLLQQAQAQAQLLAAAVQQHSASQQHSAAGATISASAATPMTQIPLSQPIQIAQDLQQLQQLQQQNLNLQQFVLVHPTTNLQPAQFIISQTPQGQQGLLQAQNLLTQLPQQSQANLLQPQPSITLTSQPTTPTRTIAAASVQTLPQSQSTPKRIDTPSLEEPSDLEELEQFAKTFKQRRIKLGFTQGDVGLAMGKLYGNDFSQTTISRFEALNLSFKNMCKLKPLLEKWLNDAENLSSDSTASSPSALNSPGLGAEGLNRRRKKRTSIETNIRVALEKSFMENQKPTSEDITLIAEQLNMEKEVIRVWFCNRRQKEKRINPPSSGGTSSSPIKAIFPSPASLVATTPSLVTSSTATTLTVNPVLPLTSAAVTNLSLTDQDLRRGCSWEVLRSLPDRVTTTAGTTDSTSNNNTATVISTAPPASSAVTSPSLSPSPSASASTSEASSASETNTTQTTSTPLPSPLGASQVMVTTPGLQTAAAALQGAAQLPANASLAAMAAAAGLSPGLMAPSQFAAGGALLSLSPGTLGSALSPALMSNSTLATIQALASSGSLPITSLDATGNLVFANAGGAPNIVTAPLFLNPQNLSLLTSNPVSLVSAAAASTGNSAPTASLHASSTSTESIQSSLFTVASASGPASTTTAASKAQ

B1: Oct1 (protein, UniProt P25425 1-770)
chain: T1 sequence

What was measured:
[1] = target: T1, Oct1 (mouse (endogenous in ESCs)); assay: co-IP
[2] = target: Utx (mouse (endogenous in ESCs)) (UniProt O70546); assay: co-IP

Molecule | binding [1] | binding [2]
Smad3 (from UniProt Q8BUN5 1-425) | binds | –
B1 | – | binds
